# The other results are listed elsewhere or left out. The main result of the screen is listed elsewhere. These columns were measured beside it and carry no call. Compounds called inactive in the main read-out are mostly missing here. The note in brackets gives the kind of curve behind each potency; many fits are weak.
# Test: qHTS Assay for Lipid Storage Modulators in Drosophila S3 Cells;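 as to cell number change: cells counted by Cell Tracker Red CMTPX staining in the red channel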
# Conditions: BODIPY lipid droplet fluorescence, 18-24 h; for cell number change: measured here: cell count max response, cells fed with added oleic acid
# How it was run: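 Drosophila S3 cells got compounds at several concentrations plus oleic acid (400 uM solution). Laser-scanning cytometry with 488 nm excitation read lipid droplets at 500-530 nm and cells at 575-640 nm. Percent activity was relative to 20 uM Triacsin C.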
# [1] = measured here: lipid fluorescence (Fed channel) AC50, cells fed with added oleic acid
# [2] = measured here: cell number channel AC50, cells fed with added oleic acid
Structure (SMILES),cell number change,AC50 [1],AC50 [2]
COc1ccc(OC)c(S(=O)(=O)Nc2cccc(C(C)=O)c2)c1,-6.41%,"4.61 µM [rising, full curve, poor fit]",–
O=C(Cc1cccs1)NCc1cn2ccccc2n1,36.7%,"6.51 µM [falling, single point]","5.8 µM [rising, partial curve]"
COc1cccc([C@@H]2CC=C(C(=O)O)CN2S(=O)(=O)c2ccc(C)cc2)c1,18.5%,"9.2 µM [rising, single point]",–
O=c1[nH]c(CSc2nnc(-c3cccnc3)n2C2CCCCC2)nc2ccccc12,59.2%,"0.651 µM [rising, full curve]","0.82 µM [rising, full curve, poor fit]"
CCOC(=O)C1CCN(S(=O)(=O)c2ccc3[nH]c(=O)ccc3c2)CC1,-1.15%,"14.6 µM [rising, partial curve]",–
O=C(CN(c1ccccc1)S(=O)(=O)c1ccc(F)cc1)NC1CCS(=O)(=O)C1 (centres undefined),57.1%,–,–
Cc1ccc2c(c1)nc(NCCCO)n2C,8.04%,"29.1 µM [rising, single point]",–
NCCc1c(C(=O)O)[nH]c2ccc([N+](=O)[O-])cc12,1.17%,"0.366 µM [falling, full curve]",–
COc1cc(C)ccc1OCCCCN1CC(C)OC(C)C1 (centres undefined),11.5%,"29.1 µM [rising, single point]",–
CCn1nc(C)c(NC(=O)/C=C/c2ccc(OC)c(COc3ccc(Br)cc3)c2)c1C,-65.6%,"11.6 µM [falling, partial curve]","13 µM [falling, partial curve]"
COc1ccc(-n2ncc3c(NCc4ccccn4)ncnc32)cc1,3.49%,"18.4 µM [rising, partial curve]","1.16 µM [rising, partial curve]"
O=C1C(Cl)=C(Nc2ccc(O)cc2)C(=O)c2ccccc21,-20.8%,"0.651 µM [falling, single point]",–
COc1cc(C#Cc2c(C=O)n(C)c3ccccc23)cc(OC)c1,14.6%,"1.16 µM [rising, partial curve, poor fit]",–
COc1ccc(C(CNC(=O)c2cccc3cccnc23)N(C)C)cc1 (centres undefined),27%,"18.4 µM [rising, partial curve]",–
COc1ccc(C(C)=O)cc1CSc1nc2ccccc2c(=O)n1-c1ccccc1C,-3.7%,"29.1 µM [falling, partial curve]","4.61 µM [rising, single point]"
CCN(CC(=O)Nc1ccc(NC(C)=O)cc1)C(=O)c1ccc2c(c1)OCO2,-0.648%,–,–
Cc1nn(-c2ccccc2)c(C)c1P(=O)(c1ccccc1)N(C)C (centres undefined),-27.2%,–,–
CC(=O)N1N=C(c2ccco2)CC1c1cccs1 (centres undefined),–,"1.64 µM [falling, partial curve]","5.8 µM [falling, single point]"
Nn1c(SCC(=O)NC(=O)NCc2ccccc2)nnc1C1CC1,-19.7%,"2.59 µM [rising, single point]",–
COC(=O)/C(=C/c1ccc(F)cc1)NC(C)=O,21%,"0.366 µM [rising, full curve, poor fit]",–
CC(C)(C)c1ccc(C(=O)OCCN2CCCCC2)cc1,-14.8%,–,"0.13 µM [falling, full curve, poor fit]"
COc1ccc(-c2cc(C(=O)Nc3ccccc3SC)no2)cc1OC,-16.5%,"7.31 µM [falling, single point]","6.51 µM [falling, partial curve, poor fit]"
Nc1ccc(C(=O)N/N=C\c2cc(N=Nc3cccc4ccccc34)ccc2O)cc1,-67.8%,"25.9 µM [falling, single point]","18.4 µM [falling, partial curve]"
CCOC(=O)C1=CC[C@@H](c2ccccc2Cl)N(S(=O)(=O)c2ccc(C)cc2)[C@H]1C(=O)OCC,-21.4%,"8.2 µM [falling, single point]",–
CCOC(=O)c1ccc(CNC(=O)CSc2nc(NC(=O)c3ccccc3)c3c(C)c(C)oc3n2)cc1,–,"2.91 µM [rising, partial curve]","2.91 µM [rising, single point]"
Cc1cc(C(=O)COc2ccc(C#N)cc2)c(C)n1-c1ccc2c(c1)OCO2,-36.1%,"1.46 µM [rising, partial curve]","32.6 µM [falling, single point]"
COc1cc(CCCN2C(=O)C(=O)NC[C@@H]2CC2CCCCC2)cc(OC)c1OC,22.4%,"5.8 µM [rising, full curve, poor fit]",–

# Complete entries, quoted from the list. Order of values: cell number change | AC50 [1] | AC50 [2]
# `COc1cccc([C@@H]2CC=C(C(=O)O)CN2S(=O)(=O)c2ccc(C)cc2)c1` in the list: 18.5% | 9.2 µM [rising, single point] | –
# `Cc1ccc2c(c1)nc(NCCCO)n2C` in the list: 8.04% | 29.1 µM [rising, single point] | –

# From PubChem BioAssay AID2685 (National Center for Advancing Translational Sciences (NCATS), 2010)
